Test results as given in PubChem BioAssay AID445 (National Center for Advancing Translational Sciences (NCATS), 2006).
The other results are listed elsewhere or left out. Further columns of the screen follow, without active or inactive calls. Most of these compounds were active or inconclusive in the main read-out, so they are no random draw. Potencies come from curve fits of mixed quality, noted in brackets.

experiment: IkB Signaling; conditions: ABC-DLBCL IkBa-CBG/CBR dual luciferase ratio (green luciferase fused to IkBa over red control in OCI-Ly3 lymphoma cells), 4 h; measured here: control luc red channel unless noted
Procedure, shortened: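 Curves were fitted separately to fusion (green), unfused (red) and ratio luminescence, then classed by r2, magnitude and activity. Cells: OCI-Ly3, 4 h compound plus doxycycline at 37C; 10 uM MG-132 defined full response.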

Which AC50 does the source give for `COc1cccc(-c2nc(-c3ccc(NC(=O)Cc4ccccc4OC)cc3)no2)c1` here?
Its AC50 is 5.01 µM [falling, partial curve].

For `CC(C)CC(=O)Nc1ccc(-c2cn3ccsc3n2)cc1`, which AC50 is on record?
Its AC50 is 10 µM [falling, partial curve].

With `COc1ccc2nc(N3CCN(C(=O)c4ccco4)CC3)sc2c1` as the molecule, how does the AC50 read?
Its AC50 is 2.51 µM [rising, partial curve].

Which AC50 does the source give for `COc1ccc(OC)c(CNC(=O)C2COc3ccccc3C2)c1` (stereo unspecified) here?
The AC50 was 10 µM [rising, partial curve].

For `CCc1ccc(S(=O)(=O)c2nnn3c2nc(N2CCCC(C)C2)c2cc(Cl)ccc23)cc1` (stereo unspecified), which AC50 is on record?
The AC50 was 0.2 µM [falling, full curve].

With `COc1ccc(Br)cc1CNC(=O)c1ccc2c(c1)nc1n2CCCCC1` as the molecule, how does the AC50 read?
Its AC50 is 20 µM [falling, partial curve].

For `Cc1noc(C)c1-c1ccc2ncnc(NCc3ccccc3)c2c1`, which AC50 is on record?
Its AC50 is 631 nM [rising, full curve] [measured here: IkB-luc green channel].

For `Cc1cccc(CN2C(=O)c3ccccc3S(=O)(=O)c3ccc(C(=O)N4CCN(c5cc(C)ccc5C)CC4)cc32)c1`, which AC50 is on record?
The AC50 was 25.1 µM [falling, single point].

Which AC50 does the source give for `CCc1ccc(-c2cc3c(N4CCN(c5ccccc5)CC4)nccn3n2)cc1` here?
Its AC50 is 12.6 µM [falling, single point].

Which AC50 does the source give for `COc1cccc(C(=O)n2nc(-c3ccco3)nc2NCc2cccs2)c1` here?
Its AC50 is 39.8 µM [falling, single point].

For `Cc1cccc(-c2nc3nc(C)cc(N4CCN(c5ccccc5)CC4)n3n2)c1`, which AC50 is on record?
Its AC50 is 5.01 µM [rising, single point].

Which AC50 does the source give for `COC(=O)c1ccccc1NC(=O)COc1ccccc1` here?
The AC50 was 10 µM [falling, partial curve].

Which AC50 does the source give for `COc1ccc(NS(=O)(=O)c2ccc(NS(=O)(=O)c3ccc4c(c3)OCCO4)cc2)cc1` here?
The AC50 was 25.1 µM [falling, partial curve].

For `COc1cccc(N2CCN(Cc3nnc(-c4ccc5c(c4)OCO5)o3)CC2)c1`, which AC50 is on record?
The AC50 was 20 µM [falling, single point].

For `COc1ccc(NC(=O)N2CCN(c3cc(-c4noc(C)n4)ccc3C)CC2)c(OC)c1`, which AC50 is on record?
Its AC50 is 2.51 µM [rising, partial curve].

Which AC50 does the source give for `Cc1c(C(=O)NCc2ccccc2Cl)sc2nc3n(c(=O)c12)CCC3` here?
Its AC50 is 2 µM [rising, full curve].

With `Cc1cc(C)cc(N2CCn3c2nc2c3c(=O)n(CCc3ccccc3)c(=O)n2C)c1` as the molecule, how does the AC50 read?
The AC50 was 15.8 µM [falling, partial curve].

Which AC50 does the source give for `Cc1cccc(N2CCN(c3ccc(C(=O)O)cc3NC(=O)c3ccccc3F)CC2C)c1` (stereo unspecified) here?
Its AC50 is 20 µM [falling, partial curve].

With `Cn1c(=O)n(CCc2ccccc2)c(=O)c2c1nc1n2CCN1c1ccc(Cl)cc1` as the molecule, how does the AC50 read?
Its AC50 is 12.6 µM [falling, partial curve].

Which AC50 does the source give for `Cc1ccc2nc(NC(=O)c3cccs3)sc2c1` here?
Its AC50 is 2 µM [falling, full curve].

With `CC(C(=O)Nc1ccccc1C(F)(F)F)n1nc(-c2ccccc2)c2c(c1=O)CCCC2` (stereo unspecified) as the molecule, how does the AC50 read?
Its AC50 is 15.8 µM [falling, partial curve].

With `COc1ccc(CC(=O)Nc2cccc(-c3nnc(-c4ccccc4)o3)c2)cc1OC` as the molecule, how does the AC50 read?
The AC50 was 3.16 µM [falling, full curve].

With `CC(C)CC(=O)Nc1c(C(=O)N2CCN(c3ccccc3F)CC2)oc2ccccc12` as the molecule, how does the AC50 read?
Its AC50 is 10 µM [falling, partial curve].

For `Cc1nc2ccccc2n1CCc1nc2c3ccccc3nc(SCC(=O)Nc3ccc(C(C)C)cc3)n2n1`, which AC50 is on record?
Its AC50 is 3.16 µM [rising, partial curve].

For `COc1ccc(NC(=O)c2ccco2)cc1NC(=O)COc1ccc(C)cc1C`, which AC50 is on record?
The AC50 was 0.631 µM [rising, full curve].

For `Clc1ccc(CSc2nc3ncccc3[nH]2)cc1`, which AC50 is on record?
Its AC50 is 1 µM [rising, full curve].

For `CCC(=O)N1CCc2cc(OC)c(OC)cc2C1COc1ccc(C(=O)OC)cc1` (stereo unspecified), which AC50 is on record?
The AC50 was 39.8 µM [falling, single point].

With `Cc1nn(Cc2ccccc2)c(C)c1C(=O)OCC(=O)c1cc(C)n(C2CC2)c1C` as the molecule, how does the AC50 read?
The AC50 was 12.6 µM [falling, partial curve].

With `CCCc1ccc(NC(=O)C2CCN(c3cnccn3)CC2)cc1` as the molecule, how does the AC50 read?
The AC50 was 15.8 µM [falling, partial curve].

For `Cc1ccc(NC(=O)Cc2ccc(NC(=O)N3CCCCc4ccccc43)cc2)cc1`, which AC50 is on record?
Its AC50 is 25.1 µM [falling, single point].

With `CSc1cccc(NC(=O)Cn2nnc(C(=O)NCCc3ccccc3)c2N)c1` as the molecule, how does the AC50 read?
The AC50 was 12.6 µM [falling, partial curve].

For `O=C1c2[nH]nc(-c3ccccc3O)c2C(c2ccc(F)cc2)N1Cc1ccco1` (stereo unspecified), which AC50 is on record?
Its AC50 is 25.1 µM [falling, partial curve].

For `O=C(Cn1cc(C(=O)c2ccco2)c2ccccc21)Nc1ccc(Br)cc1`, which AC50 is on record?
The AC50 was 15.8 µM [falling, partial curve].

With `c1ccc2oc(SCc3nc4ccccc4s3)nc2c1` as the molecule, how does the AC50 read?
Its AC50 is 20 µM [falling, partial curve].

With `CCOC(=O)c1cnn(-c2ccc(C(=O)Nc3cc(OC)c(OC)c(OC)c3)cc2)c1N` as the molecule, how does the AC50 read?
Its AC50 is 0.794 µM [falling, partial curve].

For `O=C(CSc1ccccc1)N1CCc2c([nH]c3ccccc23)C1c1ccc(F)cc1` (stereo unspecified), which AC50 is on record?
The AC50 was 15.8 µM [falling, partial curve].

For `CC1CCN(S(=O)(=O)c2cn(CC(=O)Nc3cccc(C(F)(F)F)c3)c(=O)c3ccccc23)CC1`, which AC50 is on record?
Its AC50 is 2.51 µM [falling, full curve].

Which AC50 does the source give for `COc1cccc(C(=O)Nc2cccc(C(=O)OCc3cc(=O)n4nc(C5CC5)sc4n3)c2)c1` here?
The AC50 was 0.794 µM [falling, full curve].

With `CCn1c(C(=O)NCCc2ccc(OC)c(OC)c2)cc2sc(Cl)cc21` as the molecule, how does the AC50 read?
Its AC50 is 39.8 µM [falling, single point].

With `O=C(c1ccccc1)N1CCN(c2ccc(NCc3ccc4c(c3)OCO4)cc2)CC1` as the molecule, how does the AC50 read?
The AC50 was 15.8 µM [falling, partial curve].

For `COc1cccc(NC(=O)c2ccc3nc(CCc4ccccc4)oc3c2)c1`, which AC50 is on record?
The AC50 was 3.98 µM [falling, full curve].
